These are yes or no findings as the source states them, for the method shown. In cells and extracts the contact can be indirect. Some entries that bind do so weakly or less than the wild type.
Columns and labels:
[1] = molecular target: mediator of DNA damage checkpoint 1 (MDC1), endogenous (human (endogenous in U2OS and MCF7)) (UniProt Q14676); assay: co-IP; untransfected U2OS cells, endogenous proteins, exposed or not to NCS (500 ng/ml, 30 min); nuclear chromatin-associated complexes, Dynabeads Protein G with antibody 4 h at 4 C, washed with TNE buffer; immunoblot
[2] = molecular target: mediator of DNA damage checkpoint 1 (MDC1), endogenous (human (endogenous in U2OS and MCF7)) (UniProt Q14676); assay: co-IP; U2OS and MCF7 cells transfected with FLAG-EHMT1 or FLAG-EHMT2, exposed or not to NCS (500 ng/ml, 30 min), in U2OS also with 10 uM ATM inhibitor KU-55933 for 100 min before NCS; nuclear chromatin-associated complexes (nuclear complex co-IP kit), Dynabeads Protein G with antibody 4 h at 4 C, washed 5 times with TNE buffer (0.1% NP40, 50 mM Tris-HCl pH 7.6, 150 mM NaCl, 5 mM EDTA); immunoblot
[3] = molecular target: mediator of DNA damage checkpoint 1 (MDC1), endogenous (human (endogenous in U2OS and MCF7)) (UniProt Q14676); assay: proximity ligation; in situ PLA (Duolink) in fixed U2OS and MCF7 cells transfected with FLAG-EHMT1 or FLAG-EHMT2; MDC1 antibody combined with Flag antibody; untreated or 1 h after NCS (50 ng/ml, 15 min) or Zeocin (100 ug/ml, 1 h)
[4] = molecular target: HA-tagged MDC1 wild type (full length) (human) (UniProt Q14676); assay: co-IP; U2OS cells transfected with HA-tagged MDC1 (WT or K45A); nuclear chromatin-associated complexes, Dynabeads Protein G with antibody 4 h at 4 C, washed with TNE buffer; blots for ATM, NBS1 and MRE11
[5] = molecular target: HA-tagged MDC1 K45A (unmethylated mutant) (human) (UniProt Q14676); assay: as above

Chains of the proteins cited; added tags and fusions are not shown. Lines headed by an entry give the natural chain unless they say otherwise; changes in a name come on top.
UniProt Q14676: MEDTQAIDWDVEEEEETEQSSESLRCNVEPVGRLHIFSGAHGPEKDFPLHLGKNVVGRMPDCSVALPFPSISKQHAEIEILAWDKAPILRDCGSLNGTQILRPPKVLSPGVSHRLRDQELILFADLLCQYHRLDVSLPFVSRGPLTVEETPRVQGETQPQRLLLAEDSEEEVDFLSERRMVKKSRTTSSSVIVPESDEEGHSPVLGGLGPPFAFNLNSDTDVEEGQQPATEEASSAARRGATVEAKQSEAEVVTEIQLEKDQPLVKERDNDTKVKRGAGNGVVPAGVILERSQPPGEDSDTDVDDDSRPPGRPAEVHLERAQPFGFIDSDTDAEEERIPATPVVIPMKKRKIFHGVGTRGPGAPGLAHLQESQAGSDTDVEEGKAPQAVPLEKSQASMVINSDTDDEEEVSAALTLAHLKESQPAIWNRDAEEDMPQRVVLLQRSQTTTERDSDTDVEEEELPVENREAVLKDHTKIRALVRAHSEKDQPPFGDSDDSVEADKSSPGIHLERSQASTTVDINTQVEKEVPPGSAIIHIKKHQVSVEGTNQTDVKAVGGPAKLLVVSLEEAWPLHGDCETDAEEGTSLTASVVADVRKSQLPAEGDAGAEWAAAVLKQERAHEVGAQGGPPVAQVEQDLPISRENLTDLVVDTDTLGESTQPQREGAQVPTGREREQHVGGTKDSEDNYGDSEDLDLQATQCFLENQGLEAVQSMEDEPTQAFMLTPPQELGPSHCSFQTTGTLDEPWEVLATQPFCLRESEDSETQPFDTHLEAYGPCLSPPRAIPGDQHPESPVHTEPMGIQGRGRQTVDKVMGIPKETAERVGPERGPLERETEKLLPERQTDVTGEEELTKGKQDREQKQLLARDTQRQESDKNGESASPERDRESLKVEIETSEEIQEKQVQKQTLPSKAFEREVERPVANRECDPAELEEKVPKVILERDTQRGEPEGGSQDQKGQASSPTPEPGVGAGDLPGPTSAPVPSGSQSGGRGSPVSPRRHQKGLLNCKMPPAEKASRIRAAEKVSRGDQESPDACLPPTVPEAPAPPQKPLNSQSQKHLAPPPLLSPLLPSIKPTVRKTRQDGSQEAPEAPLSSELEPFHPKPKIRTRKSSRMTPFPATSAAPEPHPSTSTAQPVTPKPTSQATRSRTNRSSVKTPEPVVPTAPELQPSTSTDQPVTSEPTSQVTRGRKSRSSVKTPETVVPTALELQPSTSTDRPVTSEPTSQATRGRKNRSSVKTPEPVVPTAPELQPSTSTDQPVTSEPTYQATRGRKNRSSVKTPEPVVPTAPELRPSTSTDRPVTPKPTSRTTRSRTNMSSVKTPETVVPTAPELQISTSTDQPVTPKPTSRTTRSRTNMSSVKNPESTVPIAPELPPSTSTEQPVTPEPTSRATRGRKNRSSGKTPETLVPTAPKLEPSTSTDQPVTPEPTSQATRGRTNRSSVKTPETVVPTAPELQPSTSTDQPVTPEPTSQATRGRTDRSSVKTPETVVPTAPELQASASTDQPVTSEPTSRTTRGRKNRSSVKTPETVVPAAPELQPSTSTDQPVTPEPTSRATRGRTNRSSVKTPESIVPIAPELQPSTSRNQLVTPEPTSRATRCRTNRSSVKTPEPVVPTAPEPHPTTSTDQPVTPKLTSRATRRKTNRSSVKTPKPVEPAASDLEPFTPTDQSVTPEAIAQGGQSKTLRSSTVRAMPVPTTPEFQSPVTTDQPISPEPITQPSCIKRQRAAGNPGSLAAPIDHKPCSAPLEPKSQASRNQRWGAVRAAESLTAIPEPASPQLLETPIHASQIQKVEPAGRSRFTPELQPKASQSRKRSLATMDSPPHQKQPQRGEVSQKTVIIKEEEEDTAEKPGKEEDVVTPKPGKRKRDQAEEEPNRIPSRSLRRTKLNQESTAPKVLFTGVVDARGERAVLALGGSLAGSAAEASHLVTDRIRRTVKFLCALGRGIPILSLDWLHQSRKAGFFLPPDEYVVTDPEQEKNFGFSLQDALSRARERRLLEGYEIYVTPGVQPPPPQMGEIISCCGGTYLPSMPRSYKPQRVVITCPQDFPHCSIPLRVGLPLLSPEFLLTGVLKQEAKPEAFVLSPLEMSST
UniProt Q9H9B1: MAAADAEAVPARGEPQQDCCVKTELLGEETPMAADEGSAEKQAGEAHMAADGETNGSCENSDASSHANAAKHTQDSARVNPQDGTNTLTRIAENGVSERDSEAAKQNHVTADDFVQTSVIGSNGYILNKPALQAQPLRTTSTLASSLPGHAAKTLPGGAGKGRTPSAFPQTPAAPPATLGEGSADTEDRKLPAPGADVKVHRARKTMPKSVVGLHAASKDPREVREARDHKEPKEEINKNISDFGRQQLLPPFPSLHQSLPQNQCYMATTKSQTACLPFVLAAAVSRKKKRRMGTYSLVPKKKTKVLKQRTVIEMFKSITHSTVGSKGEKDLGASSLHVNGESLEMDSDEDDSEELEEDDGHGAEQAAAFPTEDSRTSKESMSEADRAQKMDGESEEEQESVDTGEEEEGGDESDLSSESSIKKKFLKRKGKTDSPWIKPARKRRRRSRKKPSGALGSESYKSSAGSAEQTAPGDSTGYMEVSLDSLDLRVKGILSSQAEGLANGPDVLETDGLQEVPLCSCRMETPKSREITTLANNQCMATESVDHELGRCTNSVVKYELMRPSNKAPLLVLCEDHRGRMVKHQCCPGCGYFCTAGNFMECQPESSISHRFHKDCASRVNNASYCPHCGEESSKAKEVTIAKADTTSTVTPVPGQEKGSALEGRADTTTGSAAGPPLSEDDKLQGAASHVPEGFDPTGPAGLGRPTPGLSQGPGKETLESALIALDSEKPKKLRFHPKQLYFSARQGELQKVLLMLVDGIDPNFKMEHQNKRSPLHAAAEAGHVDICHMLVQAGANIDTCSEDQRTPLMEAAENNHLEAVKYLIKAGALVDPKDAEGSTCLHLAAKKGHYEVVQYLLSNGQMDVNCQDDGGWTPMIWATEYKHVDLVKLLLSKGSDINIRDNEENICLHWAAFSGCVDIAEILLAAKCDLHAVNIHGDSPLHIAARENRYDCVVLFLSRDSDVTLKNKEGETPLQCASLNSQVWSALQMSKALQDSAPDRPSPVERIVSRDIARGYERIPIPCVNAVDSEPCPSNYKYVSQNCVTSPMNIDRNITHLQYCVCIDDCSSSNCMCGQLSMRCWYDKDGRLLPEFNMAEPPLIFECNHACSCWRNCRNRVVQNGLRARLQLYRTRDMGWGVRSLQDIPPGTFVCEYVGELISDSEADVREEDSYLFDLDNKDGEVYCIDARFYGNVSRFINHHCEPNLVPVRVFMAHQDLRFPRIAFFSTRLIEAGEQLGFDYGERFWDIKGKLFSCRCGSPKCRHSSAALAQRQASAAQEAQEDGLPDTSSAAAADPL
UniProt Q96KQ7: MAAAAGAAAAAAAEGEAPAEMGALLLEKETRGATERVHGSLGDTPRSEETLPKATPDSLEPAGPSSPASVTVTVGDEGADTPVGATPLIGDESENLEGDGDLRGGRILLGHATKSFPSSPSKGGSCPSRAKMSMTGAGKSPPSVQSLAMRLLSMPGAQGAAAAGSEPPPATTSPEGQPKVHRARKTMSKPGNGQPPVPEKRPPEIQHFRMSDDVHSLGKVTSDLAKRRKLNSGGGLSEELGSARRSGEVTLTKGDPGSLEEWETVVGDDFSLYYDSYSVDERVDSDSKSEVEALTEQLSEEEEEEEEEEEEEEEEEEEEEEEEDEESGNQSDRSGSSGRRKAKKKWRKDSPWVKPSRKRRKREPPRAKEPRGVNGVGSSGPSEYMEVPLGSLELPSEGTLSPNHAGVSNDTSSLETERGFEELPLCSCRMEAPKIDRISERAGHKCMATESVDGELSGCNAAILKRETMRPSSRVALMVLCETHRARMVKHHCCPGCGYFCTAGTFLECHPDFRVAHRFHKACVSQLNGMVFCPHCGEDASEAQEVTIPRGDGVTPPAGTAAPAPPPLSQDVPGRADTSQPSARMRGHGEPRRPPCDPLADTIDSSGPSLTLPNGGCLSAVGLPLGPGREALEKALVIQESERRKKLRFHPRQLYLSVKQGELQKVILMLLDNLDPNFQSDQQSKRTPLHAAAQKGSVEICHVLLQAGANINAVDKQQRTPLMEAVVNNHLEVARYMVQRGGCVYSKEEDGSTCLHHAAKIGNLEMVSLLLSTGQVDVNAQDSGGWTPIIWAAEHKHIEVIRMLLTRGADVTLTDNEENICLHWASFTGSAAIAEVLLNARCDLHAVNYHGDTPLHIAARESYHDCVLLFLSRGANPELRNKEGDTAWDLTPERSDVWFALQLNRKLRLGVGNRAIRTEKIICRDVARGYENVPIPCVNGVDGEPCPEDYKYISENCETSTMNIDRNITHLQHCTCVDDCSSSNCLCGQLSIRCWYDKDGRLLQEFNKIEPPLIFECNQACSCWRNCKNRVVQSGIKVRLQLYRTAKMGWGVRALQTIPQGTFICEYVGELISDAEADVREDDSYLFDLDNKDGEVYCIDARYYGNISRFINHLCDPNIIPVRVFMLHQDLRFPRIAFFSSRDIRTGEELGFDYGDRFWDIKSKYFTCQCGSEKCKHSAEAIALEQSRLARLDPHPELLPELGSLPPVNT
UniProt O60934: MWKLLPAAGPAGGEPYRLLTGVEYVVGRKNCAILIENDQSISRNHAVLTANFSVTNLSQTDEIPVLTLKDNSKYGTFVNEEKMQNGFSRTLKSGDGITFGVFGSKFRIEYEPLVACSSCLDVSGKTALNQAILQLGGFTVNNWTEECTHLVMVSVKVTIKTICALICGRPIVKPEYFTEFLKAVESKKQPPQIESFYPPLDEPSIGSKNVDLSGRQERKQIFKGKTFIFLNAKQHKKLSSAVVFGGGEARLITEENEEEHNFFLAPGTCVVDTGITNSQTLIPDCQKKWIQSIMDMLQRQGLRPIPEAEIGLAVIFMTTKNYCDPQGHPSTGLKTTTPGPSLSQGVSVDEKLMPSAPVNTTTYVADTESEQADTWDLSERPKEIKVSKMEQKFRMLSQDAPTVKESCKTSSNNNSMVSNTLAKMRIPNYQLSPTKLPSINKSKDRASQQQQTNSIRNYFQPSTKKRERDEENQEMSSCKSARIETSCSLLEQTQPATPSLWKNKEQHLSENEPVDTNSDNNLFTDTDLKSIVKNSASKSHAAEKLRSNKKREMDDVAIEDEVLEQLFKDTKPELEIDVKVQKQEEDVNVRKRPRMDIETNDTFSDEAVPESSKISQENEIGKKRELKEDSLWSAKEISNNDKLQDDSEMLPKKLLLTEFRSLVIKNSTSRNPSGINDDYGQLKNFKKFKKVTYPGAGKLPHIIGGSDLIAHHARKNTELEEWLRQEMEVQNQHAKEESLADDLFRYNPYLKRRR

Substance | binding [1] | binding [2] | binding [3] | further results
EHMT1, endogenous (from UniProt Q9H9B1 1-1298) (enzyme) | binds | – | – | –
EHMT2, endogenous (from UniProt Q96KQ7 1-1210) (enzyme) | binds weakly | – | – | –
FLAG-tagged EHMT1 (euchromatic histone-lysine N-methyltransferase 1) (from UniProt Q9H9B1 1-1298) (enzyme) | – | binds | binds | –
FLAG-tagged EHMT2 (euchromatic histone-lysine N-methyltransferase 2) (from UniProt Q96KQ7 1-1210) (enzyme) | – | binds weakly | binds | –
NBS1, endogenous (from UniProt O60934 1-754) | – | – | – | binding [4]: binds; binding [5]: binds

Reference: paper PMC6052104
